Chains of the proteins cited; added tags and fusions are not shown.
UniProt Q0JBA9, entry or part of it: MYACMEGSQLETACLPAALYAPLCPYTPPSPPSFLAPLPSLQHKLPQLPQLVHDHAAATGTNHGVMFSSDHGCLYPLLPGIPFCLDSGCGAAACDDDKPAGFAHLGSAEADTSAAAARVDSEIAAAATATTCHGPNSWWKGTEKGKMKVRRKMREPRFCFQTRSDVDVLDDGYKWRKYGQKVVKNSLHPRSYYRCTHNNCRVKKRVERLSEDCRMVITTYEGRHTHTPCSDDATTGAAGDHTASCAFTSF

This is one part of the list.
The sequences below were run against OsWRKY34 (Oryza sativa, UniProt Q0JBA9 1-250) (assay: protein-binding microarray (RPBM); PBS, 2% BSA, 51.3 ng/ul salmon testes DNA, 50 uM zinc acetate, 200 nM TF, 25 C, 1 h; high values mean tight binding). Details: protein: recombinant; tags: N-terminal polyhistidine and DsRed monomer fusion (pET32a); label: CyDye5-dUTP incorporated in the synthesized complementary strand; 3' TTTTT single-stranded linker to array surface; dsDNA, one strand shown.
Method in brief: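 In PBS with 2% BSA, salmon testes DNA and 50 µM zinc acetate, 200 nM protein was incubated on a custom Agilent array at 25 °C for 1 h and then washed off. The array had been made double-stranded by primer extension with Cy5-dUTP and blocked with 2% BSA. The proteins were transcription factors fused N-terminally to polyhistidine and DsRed, expressed in E. coli BL21-CodonPlus and purified on Ni–NTA. The binding signal is per-feature fluorescence intensity (arbitrary units) from an Axon 4000B scanner.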
In the case of “ACAGAGAGAGAGAGAAAATAGCTTTAGAGAGAGAAAAATACGGAGTCACCTAGTGCAG”, the binding signal is reported as 8050 fluorescence intensity (a.u.). In the case of “ATCTGATTCCTGCGTTTTTCCTCTGGTCCAATCAAATGGTCGGAGTCACCTAGTGCAG”, the binding signal is reported as 10100 fluorescence intensity (a.u.). For “AGGTGAATCGCGGCTGATTGATTTCATGCTTTGTTCCTCTCGGAGTCACCTAGTGCAG”, the binding signal was 12500 fluorescence intensity (a.u.). In the case of “TACTCCAGTGCTACTTGGCCGCCGCCGCCGCCGCCGCCGGCGGAGTCACCTAGTGCAG”, the binding signal is reported as 9480 fluorescence intensity (a.u.). For “TGATAAGTTGATGCTAAATCCTGCTATTCTTTGCTCACATCGGAGTCACCTAGTGCAG”, the binding signal was 9300 fluorescence intensity (a.u.). In the case of “GCATTGTTTCCCATCGTGCAGTTTATTTGACCCCACTAAACGGAGTCACCTAGTGCAG”, the binding signal is reported as 10100 fluorescence intensity (a.u.). For “GGATGCCGTCGAGTCGTTGTAGTTTGTGTTTGTCACGTCGCGGAGTCACCTAGTGCAG”, the binding signal was 10200 fluorescence intensity (a.u.). For “GCCGCCACCATCTCGCACCTCCGCCGGCCTGCTCGGTCCCCGGAGTCACCTAGTGCAG”, the binding signal was 11600 fluorescence intensity (a.u.). In the case of “TCTTCTTTTGTTGTCTTCTGCTATCCAATCTCTTGTCAAACGGAGTCACCTAGTGCAG”, the binding signal is reported as 10500 fluorescence intensity (a.u.). “CACACGCGTTCCTATACGATTCCTATGTTTTTTTTATATTCGGAGTCACCTAGTGCAG” was tested, and the binding signal was 9410 fluorescence intensity (a.u.). For “TTTAATGGCTTCCTCACTAAACTGTCCACATTGAACACTCCGGAGTCACCTAGTGCAG”, the binding signal was 10500 fluorescence intensity (a.u.). “GTCCTCGCCCACCACGCCGCCGACCCCAGCGCCGCCATCGCGGAGTCACCTAGTGCAG” was tested, and the binding signal was 10100 fluorescence intensity (a.u.). “ACACATCACAAGCTAGCTGCTCTCTTTCCTTGCTTGTTTTCGGAGTCACCTAGTGCAG” was tested, and the binding signal was 10600 fluorescence intensity (a.u.). With “ATTTTTACCTCCACTCACTCTCTCGCTCTTTCTATCCTCTCGGAGTCACCTAGTGCAG” the binding signal was 11000 fluorescence intensity (a.u.). For “GCACGGATCATTCATTCATTCTCTCCTCCTCCGTTCCTGACGGAGTCACCTAGTGCAG”, the binding signal was 9580 fluorescence intensity (a.u.). “CTACTTTCACTCCCACCCACCCGACACAGCCGGAGCGCGCCGGAGTCACCTAGTGCAG” was tested, and the binding signal was 8630 fluorescence intensity (a.u.). In the case of “GCCCATCACCGCCCTCACGGACGACACGTCGCCAGACAGCCGGAGTCACCTAGTGCAG”, the binding signal is reported as 9070 fluorescence intensity (a.u.). For “AACGCCTCTCGAGTCTTACAGTGAGGTTGACCAAGCCTACCGGAGTCACCTAGTGCAG”, the binding signal was 9190 fluorescence intensity (a.u.). “TACTTCCTTTGTCCCTAAATATTTGATGCCGTTGACTTTTCGGAGTCACCTAGTGCAG” was tested, and the binding signal was 23900 fluorescence intensity (a.u.). In the case of “CCATAGTCTCATACTCTCACACTACCATCAACATCTGCCTCGGAGTCACCTAGTGCAG”, the binding signal is reported as 8120 fluorescence intensity (a.u.). For “GCGCGAGTACCGAGTTTGACGATGCAGCGGACGGGGCGGGCGGAGTCACCTAGTGCAG”, the binding signal was 8960 fluorescence intensity (a.u.). “TACTTCCCAACTTTTTCTTCAAACTTTCAACTTTTTTATCCGGAGTCACCTAGTGCAG” was tested, and the binding signal was 9960 fluorescence intensity (a.u.). In the case of “CATCCCGGCATAGGCCTGTTTAGTCGATTGCGTTGTGTAACGGAGTCACCTAGTGCAG”, the binding signal is reported as 8470 fluorescence intensity (a.u.). For “GAATTTACGCTTTCTGGTCAGACTTCTGTTGTCCCACTGACGGAGTCACCTAGTGCAG”, the binding signal was 12100 fluorescence intensity (a.u.). In the case of “GGTTTCGTTCGCGAGGAGGAGAGATCTGGTTGGGGAGATGCGGAGTCACCTAGTGCAG”, the binding signal is reported as 9660 fluorescence intensity (a.u.). “TTTTCCTTCTTATGACTCTTAAATATATATTTTATTTCATCGGAGTCACCTAGTGCAG” was tested, and the binding signal was 8740 fluorescence intensity (a.u.). For “CCAGAACGGCCGGTCAACGGCACCGTTGACCGTATGAGGGCGGAGTCACCTAGTGCAG”, the binding signal was 52400 fluorescence intensity (a.u.). In the case of “AAACTTCTAACTTTTCCGTCACATCGTTCCAATTTCAACCCGGAGTCACCTAGTGCAG”, the binding signal is reported as 8840 fluorescence intensity (a.u.). With “TTTGCCATCATCATGCAGAAGGGGTCAATCATGCATAACCCGGAGTCACCTAGTGCAG” the binding signal was 9150 fluorescence intensity (a.u.). In the case of “GTGCTGCCTGTGTTTATATTAAGCTCTCTTCTTCTTCCTCCGGAGTCACCTAGTGCAG”, the binding signal is reported as 8310 fluorescence intensity (a.u.). With “CCGCACGCGCTCCCTTCACCCACCTCGATCGAGCTCCATGCGGAGTCACCTAGTGCAG” the binding signal was 8590 fluorescence intensity (a.u.). For “ATTCCCTATATCAAAATCGCACGGATGTTATCTCTTTCCACGGAGTCACCTAGTGCAG”, the binding signal was 8610 fluorescence intensity (a.u.). With “GTCTTTTGGCTTCATTGTTTGGCTTATTCGTGGAAATATTCGGAGTCACCTAGTGCAG” the binding signal was 11100 fluorescence intensity (a.u.). For “TTTTACATTTGCCTCTGCAATTTTGGTTTCCTTATCGATTCGGAGTCACCTAGTGCAG”, the binding signal was 9770 fluorescence intensity (a.u.). “CCACAACGGATAACACCTCACTTCCTCAACACTCAACACACGGAGTCACCTAGTGCAG” was tested, and the binding signal was 8660 fluorescence intensity (a.u.). “CCGCAACTTCCTTTTGGCACTAAACTCGTCTTATCCGCATCGGAGTCACCTAGTGCAG” was tested, and the binding signal was 9350 fluorescence intensity (a.u.). With “CAAATTTAGCAGCCTTTCAGAGCTCAGAAGTTACCATTCCCGGAGTCACCTAGTGCAG” the binding signal was 8470 fluorescence intensity (a.u.). For “GTTGTTTTATTGATAGGTATAGGTATGAATCGAATTATTACGGAGTCACCTAGTGCAG”, the binding signal was 8390 fluorescence intensity (a.u.). In the case of “GGAAATATTTTTAGGTTAAGGGGTGTGAAGTGTACTCTCTCGGAGTCACCTAGTGCAG”, the binding signal is reported as 8870 fluorescence intensity (a.u.). For “TTCTAAAATATGTGGGTTTTTTTGTTGCAAAAGAATATTTCGGAGTCACCTAGTGCAG”, the binding signal was 9060 fluorescence intensity (a.u.). With “TTCCTCTCTCTCTGCTGTCAACTCCGGCCGACTCCGCCATCGGAGTCACCTAGTGCAG” the binding signal was 8660 fluorescence intensity (a.u.). For “GCGTCTTCTTGTATTGGTTTTGTTTTACCCTGATTGCGTGCGGAGTCACCTAGTGCAG”, the binding signal was 11200 fluorescence intensity (a.u.).

From paper PMC7819943, “Rice protein-binding microarrays: a tool to detect cis-acting elements near promoter regions in rice”
